Experimental data from patent US9238632B2, “3-cyanoanilinoalkylarylpiperazine derivative and use thereof in preparing drugs” (NHWA Pharma. Corporation, priority 2012, dated 2016).

The chains behind the UniProt entries cited, without tags or fusion partners.
UniProt P14842, whole entry: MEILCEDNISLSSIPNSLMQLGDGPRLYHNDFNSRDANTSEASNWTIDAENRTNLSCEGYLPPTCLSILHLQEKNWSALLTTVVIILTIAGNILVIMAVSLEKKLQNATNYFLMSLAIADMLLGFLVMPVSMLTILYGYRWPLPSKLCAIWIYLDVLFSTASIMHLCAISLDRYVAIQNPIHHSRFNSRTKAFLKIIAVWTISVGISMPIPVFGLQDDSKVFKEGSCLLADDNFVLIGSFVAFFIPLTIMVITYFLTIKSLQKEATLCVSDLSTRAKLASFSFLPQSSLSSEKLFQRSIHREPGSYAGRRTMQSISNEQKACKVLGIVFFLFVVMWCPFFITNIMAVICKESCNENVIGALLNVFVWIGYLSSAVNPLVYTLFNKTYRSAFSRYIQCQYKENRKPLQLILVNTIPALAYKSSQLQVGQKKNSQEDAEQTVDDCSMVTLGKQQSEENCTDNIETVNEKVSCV

What was measured:
5-HT2A receptor = molecular target: T1, 5-HT2A receptor (Rattus norvegicus, UniProt P14842); assay: In vitro competitive binding test to 5-HT2A receptor ([3H]-Ketanserin, rat cerebral cortex membranes); conditions: 10 μmol/L compound; hydrochloride salts; rat cerebral cortex membrane; unit (I %); read-out: 5-HT2A affinity [3H]-Ketanserin (inhibition rate of radioligand binding)
T1 construct: The supernatant is discarded and the precipitate (membrane receptor) is stocked; from tissue; host or cells: SD rat cerebral cortex membranes
Method: (§1) Animals: clean grade SD rats, female and male, 250-300 g, purchased from Nanjing QingLongshan animal breeding center.
(§2) Radioligand: [^3H]-8-OH-DPAT, [^3H]-Ketanserin, purchased from PerkinElmer company; 5-HT and Methysergide, purchased from Sigma company.
(§3) Positive drug: aripiprazole.
Preparation of 5-HT2A buffer solution: Tris (6.05 g) is dissolved in ultrapure water (1000 ml). PH is adjusted to 7.4 with HCl. Tris-HCl buffer solution (0.05M) is used.
(§4) Preparation of radioligand: 50 μl mother liquor is diluted to 5 ml with anhydrous ethanol, and stocked for use.
(§5) Preparation of non-labeling ligand: appropriate amounts of 5-HT and Methysergide are dissolved in ultrapure water to give solutions with final concentrations of 2*10^−5M respectively.
(§6) Preparation of solutions of various test drugs: appropriate amount of each drug is first diluted to 1 ml with ultrapure water as stock solution. When needed, 10 μl of the stock solution is diluted to 1 ml to reach a level of 10^−5M.
(§7) Rats are decapitated to get the brains. […]
(§8) Above tubes are put in 37° C. water bath immediately after finishing adding radioligand into each of them and then incubated for 25 min. […] Radioactivity is determined using liquid scintillation counter. […]

5-HT1A receptor = molecular target: T2, 5-HT1A receptor (Rattus norvegicus, UniProt P19327); assay: In vitro competitive binding test to 5-HT1A receptor ([3H]-8-OH-DPAT, rat cerebral cortex membranes); conditions: 10 μmol/L compound; hydrochloride salts; rat cerebral cortex membrane; unit (I %); read-out: 5-HT1A affinity [3H]-8-OH-DPAT (inhibition rate of radioligand binding)
T2 construct: The supernatant is discarded and the precipitate (membrane receptor) is stocked; from tissue; host or cells: SD rat cerebral cortex membranes
T2 sequence (P19327 1-422): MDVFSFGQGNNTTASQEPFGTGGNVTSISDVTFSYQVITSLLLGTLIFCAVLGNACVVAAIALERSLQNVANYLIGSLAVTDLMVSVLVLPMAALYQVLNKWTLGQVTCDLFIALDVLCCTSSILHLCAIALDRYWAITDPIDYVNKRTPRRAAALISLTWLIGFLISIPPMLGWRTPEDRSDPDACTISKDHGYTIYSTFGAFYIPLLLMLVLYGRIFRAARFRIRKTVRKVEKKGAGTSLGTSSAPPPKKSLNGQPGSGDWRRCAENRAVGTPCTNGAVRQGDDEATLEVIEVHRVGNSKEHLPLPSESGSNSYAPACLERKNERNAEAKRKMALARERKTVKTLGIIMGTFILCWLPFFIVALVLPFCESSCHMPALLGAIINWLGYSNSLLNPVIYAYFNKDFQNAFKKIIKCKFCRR
Method: as §1, §2, §3
Preparation of 5-HT1A buffer solution: Tris-HCl buffer solution (0.05M, 1000 ml) is added with certain amount of ascorbic acid, pargyline and CaCl2, to give final concentrations of 0.1%(ascorbic acid), 10 um (pargyline) and 4 mM (CaCl2) separately.
as §4, §5, §6, §7, §8

O=C1CCc2ccc(OCCCCN3CCN(c4cccc(Cl)c4Cl)CC3)cc2N1 [aripiprazole, reference compound]
inhibition at 10 µM (5-HT2A receptor): 126%
inhibition at 10 µM (5-HT1A receptor): 118%
